Four molecules from article PMC6410177 can be followed below.

Where a chain is given by its changes, count along the chain named. No constants are given. Whether binding was seen depends on the method and setting. In cells and extracts the contact can be indirect. Binding can be weak; no strength is given. Where a sequence is shown, tags or fusion partners need not be part of it.

In this assay the target is NEDD4-1, Myc-tagged. In words: co-IP.

B1: AMOTL1-AAEY367 (protein, UniProt Q8IY63 1-956)
chain: MWRAKLRRGTCEPAVKGSPSACYSPSSPVQVLEDSTYFSPDFQLYSGRHETSALTVEATSSIREKVVEDPLCNFHSPNFLRISEVEMRGSEDAAAGTVLQRLIQEQLRYGTPTENMNLLAIQHQATGSAGPAHPTNNFSSTENLTQEDPQMVYQSARQEPQGQEHQVDNTVMEKQVRSTQPQQNNEELPTYEEAKAQSQFFRGQQQQQQQQGAVGHGYYMAGGTSQKSRTEGRPTVNRANSGQAHKDEALKELKQGHVRSLSERIMQLSLERNGAKQHLPGSGNGKGFKVGGGPSPAQPAGKVLDPRGPPPEYPFKTKQMMSPVSKTQEHGLFYGDQHPGMLHEMVKPYPAPQPVRTDVAVLRYQPAAEYGVTSRPCQLPFPSTMQQHSPMSSQTSSASGPLHSVSLPLPLPMALGAPQPPPAASPSQQLGPDAFAIVERAQQMVEILTEENRVLHQELQGYYDNADKLHKFEKELQRISEAYESLVKSTTKRESLDKAMRNKLEGEIRRLHDFNRDLRDRLETANRQLSSREYEGHEDKAAEGHYASQNKEFLKEKEKLEMELAAVRTASEDHRRHIEILDQALSNAQARVIKLEEELREKQAYVEKVEKLQQALTQLQSACEKREQMERRLRTWLERELDALRTQQKHGNGQPANMPEYNAPALLELVREKEERILALEADMTKWEQKYLEESTIRHFAMNAAATAAAERDTTIINHSRNGSYGESSLEAHIWQEEEEVVQANRRCQDMEYTIKNLHAKIIEKDAMIKVLQQRSRKDAGKTDSSSLRPARSVPSIAAATGTHSRQTSLTSSQLAEEKKEEKTWKGSIGLLLGKEHHEHASAPLLPPPPTSALSSIASTTAASSAHAKTGSKDSSTQTDKSAELFWPSMASLPSRGRLSTTPAHSPVLKHPAAKGTAEKLENSPGHGKSPDHRGRVSSLLHKPEFPDGEMMEVLI
With B1, the binding entry is on record as “binds”.

B2: angiomotin-like 1 (AMOTL1), Flag-tagged, full length (protein, UniProt Q8IY63 1-956)
chain: B1 chain with A367P, A368P
As for B2, the binding result is listed as “binds”.

B3: AMOTL1-AAEY310,367 (double mutant) (protein, UniProt Q8IY63 1-956)
chain: B1 chain with P310A, P311A
For the molecule B3, the binding entry was “binds”.

B4: AMOTL1-AAEY310 (protein, UniProt Q8IY63 1-956)
chain: B1 chain with P310A, P311A, A367P, A368P
In the case of B4, the binding result was “binds”.
